Laboratory results taken from the supplement of paper PMC10849652.
The list shows a part of the results.

Protein sequences, listed by entry. Tags and fused reporters are not part of them. Lines headed by an entry give the natural chain unless they say otherwise; changes in a name come on top.
UniProt Q9UPV0, whole entry, looked up: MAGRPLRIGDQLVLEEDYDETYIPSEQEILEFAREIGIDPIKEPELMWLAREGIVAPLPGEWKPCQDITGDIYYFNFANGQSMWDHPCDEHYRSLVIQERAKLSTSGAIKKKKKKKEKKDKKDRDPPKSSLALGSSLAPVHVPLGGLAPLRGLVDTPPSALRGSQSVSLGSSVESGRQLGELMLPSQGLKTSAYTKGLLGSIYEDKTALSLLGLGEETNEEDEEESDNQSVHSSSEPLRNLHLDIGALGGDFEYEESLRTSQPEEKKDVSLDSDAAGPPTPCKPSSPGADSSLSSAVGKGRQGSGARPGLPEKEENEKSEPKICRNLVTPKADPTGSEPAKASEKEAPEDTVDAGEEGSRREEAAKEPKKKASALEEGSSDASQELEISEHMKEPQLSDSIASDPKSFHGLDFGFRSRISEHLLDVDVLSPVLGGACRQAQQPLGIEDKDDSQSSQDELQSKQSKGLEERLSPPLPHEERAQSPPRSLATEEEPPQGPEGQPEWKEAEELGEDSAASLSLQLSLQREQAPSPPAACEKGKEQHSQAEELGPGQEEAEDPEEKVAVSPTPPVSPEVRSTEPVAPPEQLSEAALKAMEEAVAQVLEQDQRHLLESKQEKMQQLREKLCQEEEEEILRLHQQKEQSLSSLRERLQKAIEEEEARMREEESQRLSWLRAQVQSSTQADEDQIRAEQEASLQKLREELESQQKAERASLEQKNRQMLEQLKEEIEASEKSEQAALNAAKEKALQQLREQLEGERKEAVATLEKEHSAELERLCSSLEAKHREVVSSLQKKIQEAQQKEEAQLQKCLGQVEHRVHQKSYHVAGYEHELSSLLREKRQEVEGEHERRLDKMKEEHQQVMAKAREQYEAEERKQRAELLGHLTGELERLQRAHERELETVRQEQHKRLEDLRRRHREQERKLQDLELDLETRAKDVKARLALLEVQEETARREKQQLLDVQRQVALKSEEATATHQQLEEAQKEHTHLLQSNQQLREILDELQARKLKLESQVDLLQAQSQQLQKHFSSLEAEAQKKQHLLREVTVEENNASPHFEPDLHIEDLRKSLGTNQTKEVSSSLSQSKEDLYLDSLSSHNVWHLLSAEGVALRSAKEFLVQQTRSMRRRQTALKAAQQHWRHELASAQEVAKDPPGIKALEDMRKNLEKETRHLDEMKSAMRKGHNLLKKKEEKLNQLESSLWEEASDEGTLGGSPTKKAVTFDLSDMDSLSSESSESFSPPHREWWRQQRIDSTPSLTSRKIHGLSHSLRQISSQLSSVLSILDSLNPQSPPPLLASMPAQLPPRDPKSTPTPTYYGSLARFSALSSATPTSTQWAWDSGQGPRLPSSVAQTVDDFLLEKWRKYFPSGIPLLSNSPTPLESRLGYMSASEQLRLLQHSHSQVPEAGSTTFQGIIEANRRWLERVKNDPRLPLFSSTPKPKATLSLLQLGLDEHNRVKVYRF
UniProt P49336: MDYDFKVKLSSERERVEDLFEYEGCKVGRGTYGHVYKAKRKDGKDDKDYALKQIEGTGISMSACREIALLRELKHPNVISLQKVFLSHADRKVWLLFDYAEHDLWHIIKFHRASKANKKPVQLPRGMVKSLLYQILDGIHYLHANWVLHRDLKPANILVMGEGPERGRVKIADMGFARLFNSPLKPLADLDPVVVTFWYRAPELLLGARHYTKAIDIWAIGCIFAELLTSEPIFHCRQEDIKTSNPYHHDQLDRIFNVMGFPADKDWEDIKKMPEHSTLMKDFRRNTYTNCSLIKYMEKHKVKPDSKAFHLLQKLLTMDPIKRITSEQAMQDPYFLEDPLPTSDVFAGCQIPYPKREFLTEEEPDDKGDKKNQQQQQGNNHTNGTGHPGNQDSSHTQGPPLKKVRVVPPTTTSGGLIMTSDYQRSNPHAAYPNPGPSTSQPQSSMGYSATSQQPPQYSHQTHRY
UniProt Q5SZL2: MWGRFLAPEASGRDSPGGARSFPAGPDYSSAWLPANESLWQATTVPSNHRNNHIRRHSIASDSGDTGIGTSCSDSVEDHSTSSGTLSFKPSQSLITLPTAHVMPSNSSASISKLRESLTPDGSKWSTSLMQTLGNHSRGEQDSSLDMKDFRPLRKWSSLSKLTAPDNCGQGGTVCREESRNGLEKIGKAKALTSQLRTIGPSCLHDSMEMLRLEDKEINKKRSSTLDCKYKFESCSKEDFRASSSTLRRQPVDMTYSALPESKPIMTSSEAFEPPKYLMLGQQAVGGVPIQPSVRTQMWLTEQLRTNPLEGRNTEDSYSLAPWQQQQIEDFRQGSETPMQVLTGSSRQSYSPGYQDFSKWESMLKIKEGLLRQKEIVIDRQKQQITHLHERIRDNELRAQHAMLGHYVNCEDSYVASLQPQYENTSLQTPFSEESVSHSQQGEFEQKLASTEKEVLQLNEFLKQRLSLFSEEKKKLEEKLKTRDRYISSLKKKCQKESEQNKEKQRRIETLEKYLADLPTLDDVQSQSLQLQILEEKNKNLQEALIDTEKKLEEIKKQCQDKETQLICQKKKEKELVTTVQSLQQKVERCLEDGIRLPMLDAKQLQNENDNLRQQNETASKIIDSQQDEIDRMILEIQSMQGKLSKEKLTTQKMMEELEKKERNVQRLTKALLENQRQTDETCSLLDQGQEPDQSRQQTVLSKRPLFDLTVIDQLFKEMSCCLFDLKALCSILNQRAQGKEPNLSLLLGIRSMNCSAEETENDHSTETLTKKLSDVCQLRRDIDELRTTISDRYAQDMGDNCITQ
UniProt O75956: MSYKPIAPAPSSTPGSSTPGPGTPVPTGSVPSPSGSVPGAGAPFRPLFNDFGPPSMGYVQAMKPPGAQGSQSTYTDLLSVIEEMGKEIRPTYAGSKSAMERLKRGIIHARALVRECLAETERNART
UniProt P14209: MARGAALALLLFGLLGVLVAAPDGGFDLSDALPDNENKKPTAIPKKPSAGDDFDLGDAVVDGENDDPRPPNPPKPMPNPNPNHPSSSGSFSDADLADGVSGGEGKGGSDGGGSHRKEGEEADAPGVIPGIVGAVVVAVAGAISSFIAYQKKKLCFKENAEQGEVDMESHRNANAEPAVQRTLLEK
UniProt Q9UQ88: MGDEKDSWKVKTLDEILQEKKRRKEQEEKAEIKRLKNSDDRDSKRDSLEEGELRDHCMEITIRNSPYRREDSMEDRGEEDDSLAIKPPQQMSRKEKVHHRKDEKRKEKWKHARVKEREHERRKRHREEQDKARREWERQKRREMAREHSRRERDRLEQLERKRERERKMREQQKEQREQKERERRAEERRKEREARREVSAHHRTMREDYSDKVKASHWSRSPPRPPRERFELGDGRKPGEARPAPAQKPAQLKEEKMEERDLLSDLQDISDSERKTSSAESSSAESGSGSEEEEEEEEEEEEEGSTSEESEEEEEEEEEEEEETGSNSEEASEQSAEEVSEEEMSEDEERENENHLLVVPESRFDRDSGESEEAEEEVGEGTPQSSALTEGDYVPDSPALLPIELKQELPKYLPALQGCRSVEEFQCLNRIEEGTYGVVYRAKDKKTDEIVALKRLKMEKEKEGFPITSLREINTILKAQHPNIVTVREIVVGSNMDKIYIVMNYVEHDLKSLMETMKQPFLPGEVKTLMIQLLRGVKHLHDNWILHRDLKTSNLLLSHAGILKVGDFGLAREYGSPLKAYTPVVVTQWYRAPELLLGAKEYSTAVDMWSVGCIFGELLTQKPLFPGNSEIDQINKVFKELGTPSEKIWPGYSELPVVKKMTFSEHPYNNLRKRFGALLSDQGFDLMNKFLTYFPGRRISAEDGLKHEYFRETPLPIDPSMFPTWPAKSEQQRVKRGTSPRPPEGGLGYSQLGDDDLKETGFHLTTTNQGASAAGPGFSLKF
UniProt Q9C0D2: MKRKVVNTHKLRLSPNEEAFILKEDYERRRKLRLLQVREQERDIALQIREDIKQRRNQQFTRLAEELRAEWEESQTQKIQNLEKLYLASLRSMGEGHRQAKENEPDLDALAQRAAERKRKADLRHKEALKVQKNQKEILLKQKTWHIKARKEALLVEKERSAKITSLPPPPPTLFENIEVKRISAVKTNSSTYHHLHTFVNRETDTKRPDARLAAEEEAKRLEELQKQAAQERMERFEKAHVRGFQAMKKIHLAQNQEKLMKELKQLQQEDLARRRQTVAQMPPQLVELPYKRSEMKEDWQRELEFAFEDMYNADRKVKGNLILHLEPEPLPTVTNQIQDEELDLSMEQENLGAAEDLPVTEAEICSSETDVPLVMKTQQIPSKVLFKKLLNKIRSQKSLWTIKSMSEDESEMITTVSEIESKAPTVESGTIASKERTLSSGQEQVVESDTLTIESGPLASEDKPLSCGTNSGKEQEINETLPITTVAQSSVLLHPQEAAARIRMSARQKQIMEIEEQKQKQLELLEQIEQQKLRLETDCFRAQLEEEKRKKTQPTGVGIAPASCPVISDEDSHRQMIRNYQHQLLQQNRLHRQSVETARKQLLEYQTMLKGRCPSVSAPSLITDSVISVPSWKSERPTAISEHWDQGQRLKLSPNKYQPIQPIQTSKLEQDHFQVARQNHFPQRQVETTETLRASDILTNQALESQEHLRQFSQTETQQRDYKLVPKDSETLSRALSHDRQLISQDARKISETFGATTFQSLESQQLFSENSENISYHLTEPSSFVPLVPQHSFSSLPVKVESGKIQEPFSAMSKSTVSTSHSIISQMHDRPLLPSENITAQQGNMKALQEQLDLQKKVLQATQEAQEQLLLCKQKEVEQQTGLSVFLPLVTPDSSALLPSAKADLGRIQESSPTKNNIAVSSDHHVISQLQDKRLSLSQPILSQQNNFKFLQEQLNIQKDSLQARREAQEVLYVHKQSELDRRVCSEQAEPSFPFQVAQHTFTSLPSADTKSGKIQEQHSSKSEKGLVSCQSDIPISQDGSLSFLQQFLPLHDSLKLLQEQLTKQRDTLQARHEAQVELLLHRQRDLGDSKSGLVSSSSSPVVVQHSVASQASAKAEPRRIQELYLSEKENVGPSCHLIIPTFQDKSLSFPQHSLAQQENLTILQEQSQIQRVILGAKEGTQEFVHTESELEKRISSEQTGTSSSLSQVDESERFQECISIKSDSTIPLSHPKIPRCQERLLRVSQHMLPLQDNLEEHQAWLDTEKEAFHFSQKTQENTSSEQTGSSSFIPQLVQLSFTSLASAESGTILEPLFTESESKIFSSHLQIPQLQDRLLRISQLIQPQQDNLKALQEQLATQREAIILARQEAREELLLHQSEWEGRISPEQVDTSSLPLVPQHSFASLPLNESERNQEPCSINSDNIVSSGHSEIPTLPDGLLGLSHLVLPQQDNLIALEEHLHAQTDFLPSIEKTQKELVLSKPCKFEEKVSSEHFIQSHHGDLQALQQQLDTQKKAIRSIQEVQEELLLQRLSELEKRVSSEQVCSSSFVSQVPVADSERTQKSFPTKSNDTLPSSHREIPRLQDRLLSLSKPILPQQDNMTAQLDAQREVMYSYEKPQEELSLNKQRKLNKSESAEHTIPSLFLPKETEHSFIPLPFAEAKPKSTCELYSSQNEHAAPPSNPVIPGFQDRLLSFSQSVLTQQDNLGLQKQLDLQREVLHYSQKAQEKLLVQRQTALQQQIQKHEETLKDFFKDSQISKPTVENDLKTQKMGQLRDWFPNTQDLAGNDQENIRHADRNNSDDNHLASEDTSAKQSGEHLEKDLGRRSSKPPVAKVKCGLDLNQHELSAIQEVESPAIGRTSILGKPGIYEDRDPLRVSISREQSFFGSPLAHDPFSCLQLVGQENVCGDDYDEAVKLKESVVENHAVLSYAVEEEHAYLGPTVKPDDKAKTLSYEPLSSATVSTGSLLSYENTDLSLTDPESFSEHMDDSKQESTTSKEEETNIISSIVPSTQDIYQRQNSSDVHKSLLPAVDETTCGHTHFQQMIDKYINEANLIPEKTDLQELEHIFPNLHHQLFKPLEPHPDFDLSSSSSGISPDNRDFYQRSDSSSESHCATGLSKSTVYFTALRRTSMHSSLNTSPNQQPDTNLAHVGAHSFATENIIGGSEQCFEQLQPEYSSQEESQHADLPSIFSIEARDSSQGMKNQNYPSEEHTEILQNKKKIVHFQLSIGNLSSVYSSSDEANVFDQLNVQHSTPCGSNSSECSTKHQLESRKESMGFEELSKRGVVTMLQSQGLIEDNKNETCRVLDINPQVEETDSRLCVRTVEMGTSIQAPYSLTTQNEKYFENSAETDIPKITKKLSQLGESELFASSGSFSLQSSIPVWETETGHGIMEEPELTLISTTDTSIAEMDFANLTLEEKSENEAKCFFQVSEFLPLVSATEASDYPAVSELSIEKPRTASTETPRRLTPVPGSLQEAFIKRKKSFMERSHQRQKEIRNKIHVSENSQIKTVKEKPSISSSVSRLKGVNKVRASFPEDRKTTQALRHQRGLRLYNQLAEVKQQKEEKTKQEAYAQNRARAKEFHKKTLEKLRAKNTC

Columns and labels:
Assay in all cases: log2 fold change, soluble protein after heating vs DMSO (PISA); higher = thermal stabilisation; K562 lysate, 10 uM; active = over 0.2 and 3.5 SD of the protein, either way, in both replicates (recomputed)
erlotinib = compound: C#Cc1cccc(Nc2ncnc3cc(OCCOC)c(OCCOC)cc23)c1 [erlotinib]
Procedure, shortened: (§1)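 Quantification was by TMTpro 16plex LC-MS/MS with equalised channel sums, applied to the supernatant after 21,000xg for 90 min. Samples were crude K562 extract at 1 mg/mL protein in PBS pH 7.4 with 1 mM MgCl2, treated with 10 μM compound for 30 min, heated for 3 min across 48°C-58°C, pooled and brought to 0.5% NP-40 at 4°C. Values are log-two fold changes in thermal stability relative to solvent controls, from duplicates.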

[1] = compound: C/C(=N\NC(=O)C1=CC(=CC=C1)S(=O)(=O)N2CCOCC2)/C3=C(C=CC(=C3)Cl)O
Procedure, shortened: as §1

[2] = compound: C1=CC(=CC=C1C2=NC3=C(N2)C=C(C=C3)C(=O)N)OC4=CC=C(C=C4)Cl
Procedure, shortened: as §1

[3] = compound: C1=CC2=C(C=CC(=C2)/C=C\3/C(=O)NC(=NCC4=CC=CS4)S3)N=C1
Procedure, shortened: as §1

[4] = compound: C1=CC2=NC=CN=C2C=C1/C=C/3\C(=O)NC(=O)S3
Procedure, shortened: as §1

[5] = compound: C1=CC=C(C=C1)C2=NC(=C(N2)C3=CC=NC=C3)C4=CC(=C(C=C4)Cl)O
Procedure, shortened: as §1

[6] = compound: C1=CC=C2C(=C1)C3=NNC4=CC=CC(=C43)C2=O
Procedure, shortened: as §1

[7] = compound: C1CCN(C1)C(=O)NC2=CC=CC(=C2)NC3=NC=C(C(=N3)NCCC4=CN=CN4)Br
Procedure, shortened: as §1

[8] = compound: C1CN(CCC1(CC2=CC=C(C=C2)Cl)N)C3=NC=NC4=C3C=CN4
Procedure, shortened: as §1

IRAK-1-4 Inhibitor I = compound: C1COCCN1CCN2C3=CC=CC=C3N=C2NC(=O)C4=CC(=CC=C4)[N+](=O)[O-] [IRAK-1-4 Inhibitor I]
Procedure, shortened: as §1

ibrutinib = compound: C=CC(=O)N1CCC[C@@H](n2nc(-c3ccc(Oc4ccccc4)cc3)c3c(N)ncnc32)C1 [ibrutinib]
Procedure, shortened: as §1

[9] = compound: CC(=O)c1cnc2ccc(-c3cc(Cl)c(O)c(Cl)c3)nc2c1N[C@H]1CC[C@H](CN(C)C)CC1
Procedure, shortened: as §1

ralimetinib = compound: CC(C)(C)Cn1c(N)nc2ccc(-c3[nH]c(C(C)(C)C)nc3-c3ccc(F)cc3)nc21 [ralimetinib]
Procedure, shortened: as §1

[10] = compound: CC(C)(O)CC(=O)NCCn1ccc2ncnc(Nc3ccc(Oc4cccc(C(F)(F)F)c4)c(Cl)c3)c21
Procedure, shortened: as §1

[11] = compound: CC(C)C1=C2N=C(C=C(N2N=C1)NCC3=CC=CC=C3)NCCCCCCN
Procedure, shortened: as §1

[12] = compound: CC1=C(C(CC(=O)N1)C2=CC=C(C=C2)C(F)(F)F)C(=O)NC3=C(C=C4C(=C3)C=NN4)F
Procedure, shortened: as §1

[13] = compound: CC1=C(C2=C(C=C1)C(=O)C3=CC=CC=C3N2CCCN)C
Procedure, shortened: as §1

[14] = compound: CC1=C(C=C(C=C1)NC(=O)C2=CC(=CC=C2)C(C)(C)C#N)NC3=CC4=C(C=C3)N=CN(C4=O)C
Procedure, shortened: as §1

[15] = compound: CC1=C(C=C(C=C1)NC(=O)C2=CC(=CC=C2)N(C)C)NC(=O)C3=CC=C(C=C3)O
Procedure, shortened: as §1

[16] = compound: CC1=CC=C(C=C1)SC2=C3C=C(SC3=CN=C2)C(=O)N
Procedure, shortened: as §1

Measured: log2 fold change

CDC40 (UniProt O60508)
active: ralimetinib -0.219
inactive: erlotinib -0.036 | [1] -0.004 | [2] -0.009 | [3] -0.037 | [4] 0.015 | [5] -0.072 | [6] -0.059 | [7] -0.023 | [8] -0.035 | IRAK-1-4 Inhibitor I 0.117 | ibrutinib 0.02 | [9] 0.034 | [10] 0.016 | [11] -0.115 | [12] 0.084 | [13] -0.019 | [14] 0.056 | [15] 0.136 | [16] -0.028

CFAP298 (UniProt P57076)
inactive: erlotinib 0.016 | [1] 0.072 | [2] -0.024 | [3] 0.044 | [4] 0.017 | [5] 0.002 | [6] -0.026 | [7] -0.016 | [8] -0.003 | IRAK-1-4 Inhibitor I -0.031 | ibrutinib -0.043 | [9] 0.002 | ralimetinib 0.014 | [10] 0.014 | [11] 0.008 | [12] -0.015 | [13] 0.088 | [14] -0.028 | [15] 0.042 | [16] 0.003

CDK11B (UniProt P21127)
inactive: erlotinib 0.01 | [1] 0.025 | [2] -0.029 | [3] 0.008 | [4] -0.018 | [5] 0.017 | [6] -0.049 | [7] -0.016 | [8] -0.003 | IRAK-1-4 Inhibitor I -0.021 | ibrutinib -0.008 | ralimetinib 0.028 | [10] 0.034 | [11] 0.01 | [12] -0.027 | [13] -0.011 | [14] 0 | [15] 0.01 | [16] 0.003
active: [9] 0.438

CENPC (UniProt Q03188)
inactive: erlotinib 0.111 | [2] 0.084 | [5] -0.063 | [7] -0.001 | [8] 0.021 | IRAK-1-4 Inhibitor I 0.052 | ralimetinib 0.013 | [10] 0.165 | [11] 0.058 | [13] 0.076 | [15] -0.073

CEP164 (UniProt Q9UPV0)
inactive: erlotinib -0.049 | [2] -0.151 | [4] 0.004 | ibrutinib -0.075 | [9] -0.053 | [11] -0.216 | [16] 0.038

CDK8 (UniProt P49336)
inactive: erlotinib -0.012 | [1] -0.059 | [2] 0.028 | [3] -0.128 | [4] 0.068 | [5] 0.004 | [6] 0.128 | IRAK-1-4 Inhibitor I 0.029 | ibrutinib 0.006 | [9] 0.097 | ralimetinib -0.041 | [10] -0.011 | [11] -0.073 | [12] -0.058 | [13] 0.095 | [14] 0.088 | [15] 0.016 | [16] 0.16

CEP85L isoform 4 (UniProt Q5SZL2)
inactive: erlotinib 0.067 | [1] 0.058 | [2] -0.137 | [3] -0.243 | [6] 0.184 | [11] -0.154 | [14] 0.116

CD99L2 isoform 5 (UniProt Q8TCZ2)
inactive: erlotinib -0.018 | [1] -0.047 | [2] 0.063 | [3] 0.07 | [6] -0.197 | [9] 0.228 | [11] -0.034 | [12] -0.048 | [13] 0.056 | [14] -0.011 | [16] 0.07

CDK2AP2 (UniProt O75956)
inactive: erlotinib 0.053 | [1] 0.042 | [2] 0.105 | [3] -0.005 | [4] -0.015 | [6] 0.078 | ibrutinib 0.12 | [9] -0.048 | [11] 0.061 | [12] -0.018 | [13] -0.034 | [14] 0.183 | [16] 0.015

CENPM (UniProt Q9NSP4)
inactive: erlotinib 0.051 | [2] 0.096 | [4] -0.064 | [5] 0.075 | [7] -0.15 | [8] -0.092 | IRAK-1-4 Inhibitor I -0.006 | ibrutinib 0.063 | ralimetinib 0.063 | [10] -0.09 | [11] -0.004 | [12] -0.058 | [13] -0.082 | [14] 0.295 | [15] -0.075

CFAP47 (UniProt Q6ZTR5)
inactive: erlotinib 0.069 | [1] 0.325 | [2] 0.106 | [3] -0.193 | [5] 0.078 | [6] -0.183 | [7] -0.166 | [8] -0.174 | IRAK-1-4 Inhibitor I 0.154 | [9] -0.024 | ralimetinib -0.233 | [10] -0.251 | [11] -0.005 | [12] -0.167 | [13] -0.271 | [14] 0.292 | [15] -0.005 | [16] -0.118

CD99 (UniProt P14209)
inactive: erlotinib -0.012 | [1] 0.084 | [2] 0.073 | [3] -0.134 | [5] 0.062 | [6] -0.113 | IRAK-1-4 Inhibitor I 0.033 | [9] 0.123 | ralimetinib 0.058 | [10] -0.055 | [11] -0.011 | [12] 0.033 | [13] -0.096 | [14] -0.047 | [15] -0.07 | [16] -0.051

CFAP97 (UniProt Q9P2B7)
inactive: erlotinib -0.078 | [1] -0.222 | [2] -0.058 | [3] 0.139 | [5] 0.025 | [6] -0.455 | IRAK-1-4 Inhibitor I 0.024 | ralimetinib 0.021 | [10] 0.05 | [11] 0.008 | [13] 0.089 | [14] 0.139 | [15] -0.05

CD82 (UniProt P27701)
inactive: erlotinib -0.019 | [1] -0.044 | [2] -0.019 | [3] 0.035 | [5] 0.001 | [6] -0.097 | IRAK-1-4 Inhibitor I -0.004 | [9] -0.072 | ralimetinib -0.047 | [10] -0.011 | [11] -0.006 | [12] -0.045 | [15] 0.053 | [16] 0.044

CDCA8 (UniProt Q53HL2)
inactive: erlotinib 0.112 | [1] 0.054 | [2] 0.009 | [3] -0.071 | [4] -0.12 | [6] -0.246 | [7] -0.01 | [8] -0.054 | ibrutinib 0.047 | [11] -0.082 | [12] 0.038 | [13] 0.011

CDC27 (UniProt G5EA36)
inactive: erlotinib 0 | [2] -0.057 | [4] -0.159 | [5] -0.066 | IRAK-1-4 Inhibitor I -0.05 | ibrutinib 0.106 | [9] -0.015 | ralimetinib 0.173 | [10] 0.062 | [11] 0.011 | [12] -0.009 | [13] -0.012 | [14] 0.074 | [15] -0.07 | [16] 0.023

CDK11A (UniProt Q9UQ88)
active: [9] 0.414
inactive: erlotinib 0.053 | [2] -0.128 | [4] -0.037 | [5] 0.027 | IRAK-1-4 Inhibitor I -0.009 | ibrutinib 0.022 | ralimetinib 0.003 | [10] 0.056 | [11] -0.036 | [12] -0.03 | [13] -0.022 | [14] 0.002 | [15] 0.025 | [16] -0.014

CDT1 (UniProt Q9H211)
inactive: erlotinib -0.009 | [2] 0.067 | [4] -0.306 | [5] 0.044 | [7] -0.019 | [8] 0.012 | IRAK-1-4 Inhibitor I 0.003 | ibrutinib 0.179 | ralimetinib 0.011 | [10] -0.079 | [11] 0.002 | [13] -0.104 | [14] -0.011 | [15] 0.013

CERS5 (UniProt Q8N5B7)
inactive: erlotinib -0.022 | [2] -0.01 | [4] 0.011 | [5] -0.043 | [7] -0.1 | [8] -0.023 | IRAK-1-4 Inhibitor I 0.05 | ibrutinib -0.031 | [9] -0.021 | ralimetinib 0.034 | [10] -0.053 | [11] -0.007 | [13] 0.029 | [14] 0.002 | [15] 0.028 | [16] -0.033

CDC25A (UniProt P30304)
inactive: erlotinib 0.016 | [2] 0.085 | [5] 0 | IRAK-1-4 Inhibitor I 0.052 | [9] -0.009 | ralimetinib 0.014 | [10] -0.044 | [11] 0.019 | [12] -0.017 | [13] 0.012 | [14] 0.087 | [15] 0.015 | [16] 0.002

Looked up one by one from the list above, 2 records:
CDC27 (UniProt G5EA36)
inactive: erlotinib 0 | [2] -0.057 | [4] -0.159 | [5] -0.066 | IRAK-1-4 Inhibitor I -0.05 | ibrutinib 0.106 | [9] -0.015 | ralimetinib 0.173 | [10] 0.062 | [11] 0.011 | [12] -0.009 | [13] -0.012 | [14] 0.074 | [15] -0.07 | [16] 0.023

CDT1 (UniProt Q9H211)
inactive: erlotinib -0.009 | [2] 0.067 | [4] -0.306 | [5] 0.044 | [7] -0.019 | [8] 0.012 | IRAK-1-4 Inhibitor I 0.003 | ibrutinib 0.179 | ralimetinib 0.011 | [10] -0.079 | [11] 0.002 | [13] -0.104 | [14] -0.011 | [15] 0.013

Additional entries.

CEP295 isoform 3 (UniProt Q9C0D2)
inactive: erlotinib -0.063 | [2] -0.02 | [4] 0.051 | [5] -0.092 | [7] 0.015 | [8] 0.111 | IRAK-1-4 Inhibitor I -0.143 | ibrutinib -0.182 | [9] -0.048 | ralimetinib 0.005 | [10] 0.009 | [11] -0.019 | [12] 0.02 | [14] 0.041 | [15] 0 | [16] 0.053
